The record followed here is the RNAGym collection of RNA variant scans (doi:10.1126/science.aae0568).

To fix the notation:
B1: tRNA (parent)
chain: GUUCCGUUGGCGUAAUGGUAACGCGUCUCCCUCCUAAGGAGAAGACUGCGGGUUCGAGUCCCGUACGGAACG

Variants at the background level are over-represented here. Where only a bound is given, the exact number is not on record here.

The series covers variants of B1. In words: yeast fitness relative to wild type (ratio to wild type); higher = fitter; tRNA-Arg(CCU), competitive growth, 37 C, YPD. The method, boiled down: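 Variants of the tRNA-Arg(CCU) gene, chemically synthesised with a 3% per-site mutation rate at 69 sites, were placed at the native genomic locus in Saccharomyces cerevisiae. The pooled strains were competed in YPD at 37°C for 24 hours in six parallel replicates. Gene amplicons from the start population and from each end population were read by 100-nucleotide paired-end sequencing. Darwinian fitness relative to wild type came from changes in genotype frequencies; genotypes needed ≥ 100 starting reads, and estimates < 0.5 were set to 0.5.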
For GUUCGGUUGACGUAAUGGUAACGCGUCUCCCUCCUACGGAGAAGACUGCGGGUUCAAGUCCCGUAUGGAACG [C5G G10A A37C G56A C66U], the yeast fitness was not above 0.5. Regarding GUUCCGUUGGGGUAAUGGUAACGCGUCACCCUCCUAAGGAGAAGACUGCGGGUUCGAGUCCCGUUCAGAACG [C11G U28A A65U G67A], the yeast fitness was not above 0.5.

On to GUUCCGUGGGCGUAAUGCUAAUGCGUCUUCCUCCUAAGGAGAAGAAUGCGGGUUGGAGUCCCGAACGGAACG [U8G G18C C22U C29U C46A C55G U64A], for which the yeast fitness is not above 0.5.

For the variant GAUCCGUUGGCGUAAUGGUGACGCGUCUCCCUCCUAAGGAGAAAACUGCGGGUUCGAGUCCCGUACGGAUCG [U2A A20G G44A A70U], the yeast fitness was not above 0.5. Take GUUCCGUUGGCGUAAUGGUAACGCGUCUCCCUCCUAAGGAGAAGACUGUGGGUGGGAGUCCCGUACAGAGCG [C49U U54G C55G G67A A70G]: the yeast fitness was not above 0.5.

GUUCCGUAGGCGUAUUGGUAACGCGUCUGCCUCCUAAGGAAAAGACUGGGGGUUCGGGUCCCGUACGGAACG [U8A A15U C29G G41A C49G A57G]: the yeast fitness is not above 0.5. Then GUACCGUUGGCGUAAUGGUAAGGCGUCUUCCUCCUAAGGAGAAGACUGCGGGUUCGAGUCCCAUACGGAACG [U3A C22G C29U G63A], with not above 0.5; and GUUCCGUUGGUGUAGUGGUAACGGGUGUCCUUCCUAAGGAGAAGACUGCGGGUUUGAGUCCCGUACGGAACG [C11U A15G C24G C27G C31U C55U], with not above 0.5.

Regarding GUUGCGUUGGCGUAAUAGUAACGCGUCUCCCUCAUAAGGAGAGGACUGCGGGUUCGAGUCCCAUACGGAACG [C4G G17A C34A A43G G63A], the yeast fitness is not above 0.5. With GUUCCGUUGCCGUAAUGGUAACGCGCCUCCCUCCUAAGGAGAAGAUUGCGGGUUCGAGUCCCGUACGGAACG [G10C U26C C46U], the yeast fitness is not above 0.5. GUUCCGUGGGCAUAAUGGUAACGCGUCUCCCUCCUACGGAGAUGACUGCGGGUUCGAGUCCCGUAAGGACCG [U8G G12A A37C A43U C66A A70C]: the yeast fitness was determined as 0.597.

For GUUCCGUUGCCGUAAUGGUGACGCGUCUCCCUCCUAAGGAGAUGACUACGAGUUCGAGUCCCGUACGGAACG [G10C A20G A43U G48A G51A], the yeast fitness is not above 0.5. As for GUUCCGUUGGCGUAAUGGUAACGAGUCUCCCUCCUAAGGAGAAGUCUGCGGGUUGGAGUCCCGUACGGAACG [C24A A45U C55G], the yeast fitness is not above 0.5. Then GUUCCGUUGGCGUAAUGGUAACGCGUCUUCCUCCUUAGGAGAAGACUGCGGGUUCGAGUCUCGUACGGAACG [C29U A36U C61U], with not above 0.5; and GUGACGUUGGCGUAAUGGUAACGCGUCUCCCUCCUAAGGAGAAGACUGCGGGUUCGAGUCCAGUACGGAACG [U3G C4A C62A], with not above 0.5; and GUUCCGUUGGCGUAAUGGUAACGCGUGUGCCUCCUAAGGAGAAGACUGUGGGUUCGAGUCCCCUACGGAACG [C27G C29G C49U G63C], with not above 0.5. As to GUUCCGUUGACGUAAUGGUAACGCGUCUCCAUCCUAAGGAGAAGACUGCGGGUUUGAGUCCCAUACGGAACG [G10A C31A C55U G63A], the yeast fitness was not above 0.5.

As for GUUCCGUUGGCGUCAUGCUAACGCGUCACGCUCCUAAGGAGAGGACUGCGGGUUCGGGUUCCGUCCUGAACG [A14C G18C U28A C30G A43G A57G C60U A65C G67U], the yeast fitness is 0.557.

Turning to GUUUCGUAGGCGUAAUGGUAACGCGUCUCCCGCCAAAGGAGAAGACUGCGGGUUCGAGUCCCGUACGGAACG [C4U U8A U32G U35A], the yeast fitness was not above 0.5. As to GUUCGGUUGGCGUAAUGGUAACGCGUCUCCCUUCUAAGAAGAAGACUGCGGGUUCGAGUCCCGUACGGAACG [C5G C33U G39A], the yeast fitness was not above 0.5. The figure for GUUCUGUUGGCGUAAUGGUAACGCGUCUUCCUCCUAAGGAGUAGACUGCGGGUUCGAGUCUCGUACGGAACG [C5U C29U A42U C61U] is not above 0.5. On to GUUCCGUUGGCGUGAUGGUAACGCGUCUCGCUCCUAAGGAGAAGAUUGCGGGUUCGAGUGCCGUACGGAACG [A14G C30G C46U C60G], for which the yeast fitness was not above 0.5.

In the case of GUUCCGUUGGCGUAAUGGUAACGCGUCAGCUUCCUAAGGAGAAGACUGCGGGUUCGAGUCCCGUACGGAACG [U28A C29G C31U], the yeast fitness was not above 0.5.

GUUCCAUUGGCAUAAUGGUAACGCGUCUCCCUCCUUAGGAGAAGACUGCGGGUCCGAGUCCCGUACGGAACG [G6A G12A A36U U54C]: the yeast fitness was not above 0.5. The figure for GUUCCGUUGGCGUAAUGAUAACGCGUCUUCCUCCUAAGGAGAAGACUGCGGCUUCGAGUCCCAUACGGAACG [G18A C29U G52C G63A] is not above 0.5; for GUUCCGUUGGCGUAAUGGUAACGCGUCUCCCUCCUAAGGAGCAGACUGCGGGUCCGAGUCCCGUACGGAACG [A42C U54C] it is 0.796; for GUUCCGUUGGGGUAAUGGUUACGCGGCUCCCUCCUAAGGAGAAGACGGCGGGUUCGAGUCUCGUACGGAACG [C11G A20U U26G U47G C61U] it is not above 0.5. For GUUCCGUUGGCGUAAUGGUAACGCCUCUCCCUCCUAAGGAGAAGACUGCGGGUUUGAGUCCCGUACGGUACG [G25C C55U A69U], the yeast fitness turned out to be 0.609. Then GUUCCGUUAGCGUAAUGGUAACGCGUCUCCCUCCUAAGGAGAAGACUGCGAGUUCGAGUUCCGUACAGAACG [G9A G51A C60U G67A], with 0.588; and GUUCCGUUGGCGUAAUGGUAACGCGUCUCCCUCCCAAGGAGAAGCCUGGGGGUUCGAGUCCCGUACGGAACG [U35C A45C C49G], with 0.562; and GUUCCGGUGGCGUAAUGGUAACGCGUCUCCCUCGUCAGGAGAAGACUGCGGGUUCGAGUCCGGUACGCAACG [U7G C34G A36C C62G G68C], with not above 0.5. On to GUUCCGUUGGCGCAAUGGUAACGCGUCUUCCUCCUAAGGAGAAGACUGCGGGCUCCAGUCCCGUACGGAACG [U13C C29U U53C G56C], for which the yeast fitness was not above 0.5.

For the variant GUUCCGUUGGCGUAAUGGUAUCGCGUCUCCCUCCUAAGGAGAAGUCUGCGAGUUGGAGUCCCGUCCGGAACG [A21U A45U G51A C55G A65C], the yeast fitness was not above 0.5.

As for GUUCCGUUGGCGUAAUGGUAACGCGUCUCCCUCCUAAAGAGAAGACUGCGGGUUCAAGUCCCGUAGGGAACG [G38A G56A C66G], the yeast fitness was not above 0.5. Regarding GUUCCGUUGGCGUAAUGGUGACGCGUCUCCAUCGUAAGGAGAAGUCUGCGGGUUCGAGUCCCGUACGGAACG [A20G C31A C34G A45U], the yeast fitness is not above 0.5.

As for GUUCUGUUGGCGUGAAGGUAACGCGUCUCUCUCCUAAGGAGAAGACUGCGGGUUCGAGUCCCAUACGGAGCG [C5U A14G U16A C30U G63A A70G], the yeast fitness was not above 0.5. GUUCCGUUGGCGUAAUGGUAACGUGUCUCCCUCCUAAGGAGAAGACUGCGGGUUGGAGUCGCGUACGAAACG [C24U C55G C61G G68A]: the yeast fitness was not above 0.5. Then GUUCCGUUGGCGUAAUGGUAACGCGUCUACCUCCUAAGGAGAAGACUGGGGGUUUGAGUCCCGUACGGAACG [C29A C49G C55U], with not above 0.5.
